Assay results: PMC4973933

B1: eIF4E1 encoded by the pvr2^+ allele (pvr2/eIF4E1) (protein, UniProt A0A1U8GR65 1-228)
chain: MATAEMEKTTTFDEAEKVKLNANEADDEVEEGEIVEETDDTTSYLSKEIATKHPLEHSWTFWFDNPVAKSKQAAWGSSLRNVYTFSTVEDFWGAYNNIHHPSKLVVGADLHCFKHKIEPKWEDPVCANGGTWKMSFSKGKSDTSWLYTLLAMIGHQFDHEDEICGAVVSVRGKGEKISLWTKNAANETAQVSIGKQWKQFLDYSDSVGFIFHDDAKRLDRNAKNRYTV
B2: eIF4E1 encoded by the pvr2^4 allele (pvr2/eIF4E1) (protein, UniProt A0A1U8GR65 1-228)
chain: MATAEMEKTTTFDEAEKVKLNANEADDEVEEGEIVEETDDTTSYLSKEIATKHPLEHSWTFWFDNPEAKSKQAAWGSSLRNVYTFSTVEDFWGAYNNIHHPSKLVVGADLHCFKHKIEPKWEDPVCANGGTWKMSFSKGKSDTSWLYTLLAMIGHQFDHEDEICGAVVSVRGKGEKISLWTKNAANETAQVSIGKQWKQFLDYSDSVGFIFHDDAKRLDRNAKNRYTV
B3: eIF4E1 encoded by the pvr2^23 allele (pvr2/eIF4E1) (protein, UniProt A0A1U8GR65 1-228)
chain: MATAEMEKTTTFDEAEKVKLNANEADDEVEEGEIVEETDDTTSYLSKEIATKHPLEHSWTFWFDNPVEKSKQAAWGSSLRNVYTFSTVEDFWGAYNNIHHPSKLVVGADLHCFKHKIEPKWEDPVCANGGTWKMSFSKGKSDTSWLYTLLAMIGHQFDHEDEICGAVVSVRGKGEKISLWTKNAANETAQVSIGKQWKQFLDYSDSVGFIFHDDAKRLDRNAKNRYTV

Assays:
[1] = target: VPg of Potato virus Y, avirulent isolate LYE84 (Potato virus Y (isolate LYE84)); experiment: two-hybrid; Matchmaker GAL4 two-hybrid system 3; eIF4E1 variants fused to the GAL4 activation domain (pGADT7, AH109), VPg fused to the GAL4 binding domain (pGBKT7, Y187); after mating, growth on -LWH medium at 30°C, checked 2 to 7 days after spotting; growth as percent of pvr2^+ with VPg-PVY
[2] = target: VPg of Tobacco etch virus, avirulent isolate HAT (Tobacco etch virus (isolate HAT)); experiment: as above

| Binder | binding [1] | binding [2] |
| --- | --- | --- |
| B1 | binds | binds |
| B2 | no binding | binds |
| B3 | no binding | binds |

No constants are given. Whether binding was seen depends on the method and setting. Binding can be weak; no strength is given.
